Experimental data from publication doi:10.1101/2021.10.01.462460.
No constants are given. Whether binding was seen depends on the method and setting. In cells and extracts the contact can be indirect. Some entries that bind do so weakly or less than the wild type. Sequences can lack the tags named with a protein.

Protein sequences, listed by entry. Tags and fused reporters are not part of them. Lines headed by an entry give the natural chain unless they say otherwise; changes in a name come on top.
UniProt Q96EP0: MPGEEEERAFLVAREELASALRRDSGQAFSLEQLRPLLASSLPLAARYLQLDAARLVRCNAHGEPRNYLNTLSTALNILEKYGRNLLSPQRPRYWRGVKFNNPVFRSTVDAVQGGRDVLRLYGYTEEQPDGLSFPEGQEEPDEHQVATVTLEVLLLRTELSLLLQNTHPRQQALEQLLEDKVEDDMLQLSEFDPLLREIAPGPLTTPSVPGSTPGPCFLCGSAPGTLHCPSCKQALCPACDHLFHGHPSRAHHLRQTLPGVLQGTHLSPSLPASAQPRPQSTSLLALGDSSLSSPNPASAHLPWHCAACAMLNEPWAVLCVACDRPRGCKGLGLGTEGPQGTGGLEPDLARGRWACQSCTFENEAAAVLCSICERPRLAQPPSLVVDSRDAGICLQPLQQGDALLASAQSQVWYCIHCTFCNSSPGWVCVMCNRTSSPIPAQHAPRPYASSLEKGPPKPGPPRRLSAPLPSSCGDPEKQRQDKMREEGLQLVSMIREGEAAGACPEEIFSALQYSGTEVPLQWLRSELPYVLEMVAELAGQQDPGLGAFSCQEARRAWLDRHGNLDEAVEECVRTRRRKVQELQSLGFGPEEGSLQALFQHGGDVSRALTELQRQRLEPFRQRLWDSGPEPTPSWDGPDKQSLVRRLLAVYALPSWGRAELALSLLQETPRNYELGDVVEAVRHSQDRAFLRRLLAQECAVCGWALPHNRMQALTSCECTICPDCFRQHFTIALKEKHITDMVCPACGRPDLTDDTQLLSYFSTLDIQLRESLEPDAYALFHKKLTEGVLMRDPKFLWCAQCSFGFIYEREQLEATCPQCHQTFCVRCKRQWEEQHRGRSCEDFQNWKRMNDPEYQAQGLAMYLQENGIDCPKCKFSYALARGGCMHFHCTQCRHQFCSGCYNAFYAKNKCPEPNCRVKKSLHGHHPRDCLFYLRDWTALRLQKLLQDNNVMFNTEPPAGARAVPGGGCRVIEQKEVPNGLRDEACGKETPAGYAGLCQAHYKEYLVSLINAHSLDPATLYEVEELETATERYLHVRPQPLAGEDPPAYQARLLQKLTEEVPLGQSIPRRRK
UniProt Q9Y572: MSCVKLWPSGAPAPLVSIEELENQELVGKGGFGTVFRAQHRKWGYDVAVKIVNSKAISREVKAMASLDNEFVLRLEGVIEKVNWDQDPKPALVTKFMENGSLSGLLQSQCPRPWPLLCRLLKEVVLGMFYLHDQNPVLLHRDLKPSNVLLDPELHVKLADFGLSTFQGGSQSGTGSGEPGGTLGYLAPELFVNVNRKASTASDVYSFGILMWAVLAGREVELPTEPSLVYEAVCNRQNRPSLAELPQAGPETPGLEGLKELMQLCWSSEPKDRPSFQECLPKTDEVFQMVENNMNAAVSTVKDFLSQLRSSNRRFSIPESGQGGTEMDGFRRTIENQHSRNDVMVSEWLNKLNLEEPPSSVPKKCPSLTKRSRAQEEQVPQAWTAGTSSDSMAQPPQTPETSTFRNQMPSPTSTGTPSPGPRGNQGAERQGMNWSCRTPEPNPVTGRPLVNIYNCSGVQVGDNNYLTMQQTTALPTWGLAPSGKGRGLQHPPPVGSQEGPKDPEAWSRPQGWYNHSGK
UniProt Q96BN8: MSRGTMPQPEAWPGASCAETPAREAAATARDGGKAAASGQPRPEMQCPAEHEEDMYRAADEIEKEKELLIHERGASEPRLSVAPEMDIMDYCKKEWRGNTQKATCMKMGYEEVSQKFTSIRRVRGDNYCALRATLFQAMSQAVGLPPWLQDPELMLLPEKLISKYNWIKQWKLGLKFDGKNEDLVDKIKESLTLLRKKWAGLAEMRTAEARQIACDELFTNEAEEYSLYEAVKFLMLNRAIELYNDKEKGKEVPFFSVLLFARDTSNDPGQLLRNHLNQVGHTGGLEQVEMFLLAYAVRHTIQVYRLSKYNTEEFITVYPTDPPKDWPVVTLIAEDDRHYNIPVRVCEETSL

T1: FLAG-tagged wild-type (WT) ZBP1 (Z-DNA-binding protein 1) (human) (UniProt Q9H171)
T1 sequence: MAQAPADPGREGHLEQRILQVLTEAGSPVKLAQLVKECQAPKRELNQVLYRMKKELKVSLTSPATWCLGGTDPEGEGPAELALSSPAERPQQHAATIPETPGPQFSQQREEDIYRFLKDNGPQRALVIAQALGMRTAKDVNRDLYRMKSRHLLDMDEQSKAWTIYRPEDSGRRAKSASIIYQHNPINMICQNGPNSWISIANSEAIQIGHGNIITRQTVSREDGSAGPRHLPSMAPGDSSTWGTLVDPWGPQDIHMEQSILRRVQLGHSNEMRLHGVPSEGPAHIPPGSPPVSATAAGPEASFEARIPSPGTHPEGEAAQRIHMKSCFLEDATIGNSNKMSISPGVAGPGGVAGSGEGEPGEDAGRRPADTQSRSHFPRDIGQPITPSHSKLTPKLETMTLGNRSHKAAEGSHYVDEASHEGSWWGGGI

T2: FLAG-tagged wild-type (WT) ZBP1 (Z-DNA-binding protein 1) (human), Q9H171
T2 chain: T1 sequence

B1: RIPK1, Q13546 1-671 (protein)
chain: MQPDMSLNVIKMKSSDFLESAELDSGGFGKVSLCFHRTQGLMIMKTVYKGPNCIEHNEALLEEAKMMNRLRHSRVVKLLGVIIEEGKYSLVMEYMEKGNLMHVLKAEMSTPLSVKGRIILEIIEGMCYLHGKGVIHKDLKPENILVDNDFHIKIADLGLASFKMWSKLNNEEHNELREVDGTAKKNGGTLYYMAPEHLNDVNAKPTEKSDVYSFAVVLWAIFANKEPYENAICEQQLIMCIKSGNRPDVDDITEYCPREIISLMKLCWEANPEARPTFPGIEEKFRPFYLSQLEESVEEDVKSLKKEYSNENAVVKRMQSLQLDCVAVPSSRSNSATEQPGSLHSSQGLGMGPVEESWFAPSLEHPQEENEPSLQSKLQDEANYHLYGSRMDRQTKQQPRQNVAYNREEERRRRVSHDPFAQQRPYENFQNTEGKGTAYSSAASHGNAVHQPSGLTSQPQVLYQNNGLYSSHGFGTRPLDPGTAGPRVWYRPIPSHMPSLHNIPVPETNYLGNTPTMPFSSLPPTDESIKYTIYNSTGIQIGAYNYMEIGGTSSSLLDSTNTNFKEEPAAKYQAIFDNTTSLTDKHLDPIRENLGKHWKNCARKLGFTQSQIDEIDHDYERDGLKEKVYQMLQKWVMREGIKGATVGKLAQALHQCSRIDLLSSLIYVSQN
B2: TAK1 (enzyme, UniProt O43318 1-606)
chain: MSTASAASSSSSSSAGEMIEAPSQVLNFEEIDYKEIEVEEVVGRGAFGVVCKAKWRAKDVAIKQIESESERKAFIVELRQLSRVNHPNIVKLYGACLNPVCLVMEYAEGGSLYNVLHGAEPLPYYTAAHAMSWCLQCSQGVAYLHSMQPKALIHRDLKPPNLLLVAGGTVLKICDFGTACDIQTHMTNNKGSAAWMAPEVFEGSNYSEKCDVFSWGIILWEVITRRKPFDEIGGPAFRIMWAVHNGTRPPLIKNLPKPIESLMTRCWSKDPSQRPSMEEIVKIMTHLMRYFPGADEPLQYPCQYSDEGQSNSATSTGSFMDIASTNTSNKSDTNMEQVPATNDTIKRLESKLLKNQAKQQSESGRLSLGASRGSSVESLPPTSEGKRMSADMSEIEARIAATTAYSKPKRGHRKTASFGNILDVPEIVISGNGQPRRRSIQDLTVTGTEPGQVSSRSSSPSVRMITTSGPTSEKPTRSHPWTPDDSTDTNGSDNSIPMAYLTLDHQLQPLAPCPNSKESMAVFEQHCKMAQEYMKVQTEIALLLQRKQELVAELDQDEKDQQNTSRLVQEHKKLLDENKSLSTYYQQCKKQLEVIRSQQQKRQGTS
B3: IKKβ (enzyme, UniProt O14920 1-756)
chain: MSWSPSLTTQTCGAWEMKERLGTGGFGNVIRWHNQETGEQIAIKQCRQELSPRNRERWCLEIQIMRRLTHPNVVAARDVPEGMQNLAPNDLPLLAMEYCQGGDLRKYLNQFENCCGLREGAILTLLSDIASALRYLHENRIIHRDLKPENIVLQQGEQRLIHKIIDLGYAKELDQGSLCTSFVGTLQYLAPELLEQQKYTVTVDYWSFGTLAFECITGFRPFLPNWQPVQWHSKVRQKSEVDIVVSEDLNGTVKFSSSLPYPNNLNSVLAERLEKWLQLMLMWHPRQRGTDPTYGPNGCFKALDDILNLKLVHILNMVTGTIHTYPVTEDESLQSLKARIQQDTGIPEEDQELLQEAGLALIPDKPATQCISDGKLNEGHTLDMDLVFLFDNSKITYETQISPRPQPESVSCILQEPKRNLAFFQLRKVWGQVWHSIQTLKEDCNRLQQGQRAAMMNLLRNNSCLSKMKNSMASMSQQLKAKLDFFKTSIQIDLEKYSEQTEFGITSDKLLLAWREMEQAVELCGRENEVKLLVERMMALQTDIVDLQRSPMGRKQGGTLDDLEEQARELYRRLREKPRDQRTEGDSQEMVRLLLQAIQSFEKKVRVIYTQLSKTVVCKQKALELLPKVEEVVSLMNEDEKTVVRLQEKRQKELWNLLKIACSKVRGPVSGSPDSMNASRLSQPGQLMSQPSTASNSLPEPAKKSEELVAEAHNLCTLLENAIQDTVREQDQSFTALDWSWLQTEEEEHSCLEQAS

Legend:
[1] = target: T1, FLAG-tagged wild-type (WT) ZBP1 (Z-DNA-binding protein 1) (human); assay: co-IP
[2] = target: T2, FLAG-tagged wild-type (WT) ZBP1 …; assay: co-IP; conditions: remark: other sources report otherwise

Molecule | binding [1] | binding [2]
LUBAC (HOIP, HOIL-1, SHARPIN) (from UniProt Q96EP0 1-1072; Q9BYM8 1-510; Q9H0F6 1-387) (complex) | binds | –
phosphorylated RIPK3 (from UniProt Q9Y572 1-518) | binds | –
RIPK3 (from UniProt Q9Y572 1-518) | binds | –
OTULIN (from UniProt Q96BN8 1-352) (enzyme) | binds | –
B1 | – | binds
B2 | binds | –
B3 | binds | –
